Assay results reported in PubChem BioAssay (NCATS).
Inconclusive means that the source gave no clear call. Such entries were picked first, then a sample of the others. A potency beside an inconclusive call is a rough fit, not a confirmed value. The source made the active and inactive calls. The call rests on the fitted dose curve; in most records, active means well fitted inhibition curve with a large enough effect; inconclusive means small, poorly fitted or top-dose-only effect; inactive means no such curve, though single readings can be large or run the other way.

By UniProt entry, the sequences of proteins in these tests, tags left out. Where a name states a change or a piece, a line headed by the entry shows the natural chain unless it says otherwise.
UniProt Q99816: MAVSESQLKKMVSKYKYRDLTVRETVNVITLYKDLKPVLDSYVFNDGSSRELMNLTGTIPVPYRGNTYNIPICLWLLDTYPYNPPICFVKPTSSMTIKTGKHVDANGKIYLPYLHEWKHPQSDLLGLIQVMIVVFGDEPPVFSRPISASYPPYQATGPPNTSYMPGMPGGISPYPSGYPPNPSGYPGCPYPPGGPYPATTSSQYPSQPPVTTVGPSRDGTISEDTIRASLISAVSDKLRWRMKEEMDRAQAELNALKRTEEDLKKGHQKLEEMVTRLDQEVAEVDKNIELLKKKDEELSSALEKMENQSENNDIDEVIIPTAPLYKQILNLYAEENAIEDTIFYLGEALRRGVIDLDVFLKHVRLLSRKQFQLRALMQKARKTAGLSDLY

target: Tumor susceptibility gene 101 protein (Homo sapiens) (UniProt Q99816); test: qHTS Assay for Iinhibitors of HIV-1 Budding by Blocking the Interaction of PTAP/TSG101: Hit Validation (AID 651600); conditions: PTAP peptide/TSG101 UEV interaction, biochemical assay; series mostly up to 57.5 µM; further: nearly all actives have a fitted effect of over 70% in size
Method in brief: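 Fluorescence polarization binding assay: Tsg101 binding domain (10 uM final) pre-dispensed with compounds, then FITC-labeled PTAP-motif peptide (50 nM final) added; 20 min at r.t. in HEPES pH 7.5 buffer with NaCl, Tween 20, EDTA, TCEP.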
Potency means the concentration at half of the fitted maximal effect.

Potency, inconclusive:
N#CC1(C#N)C(c2ccccc2)OC23CCCCC2C1(C#N)C(=N)O3 (stereo not given) 46.1 µM [inhibitor, single point], CCOc1cc(C2C(C#N)=C(N)OC(C)=C2C(C)=O)cc(Br)c1O (stereo not given) 14.6 µM [inhibitor, full curve, poor fit], COc1ccccc1N1C(=O)c2cccc3c(N(C)CCO)ccc(c23)C1=O 18.3 µM [inhibitor, partial curve], COC(=O)c1cc(N2CCN(C)CC2)nc2ccccc12 41.1 µM [inhibitor, single point], CCc1cc(C(=O)Nc2ccc(OC)nc2)sc1C 29.1 µM [inhibitor, single point], N=c1c(S(=O)(=O)c2ccc(Cl)cc2)cc2c(=O)n3ccccc3nc2n1Cc1cccnc1 11.6 µM [inhibitor, full curve, poor fit], O=C(NCCc1ccc(F)cc1)c1cccc2c1C(=O)c1ccc(N3CCC(Cc4ccccc4)CC3)cc1S2(=O)=O 18.3 µM [inhibitor, partial curve], CC1CCN(Cc2c(O)ccc3c2O/C(=C\c2ccco2)C3=O)CC1 20.6 µM [inhibitor, partial curve], O=c1nc2c(O)cccn2c2c1c(=O)[nH]c1ccccc12 10.3 µM [inhibitor, full curve], C=CCOc1ccc(C2C(C(=O)c3cccs3)=C(O)C(=O)N2c2nnc(C)s2)cc1 (stereo not given) 5.8 µM [inhibitor, full curve], O=C(C1=NN(c2ccccc2)C2C(=O)N(c3cccc(Cl)c3)C(=O)C12)c1ccccc1 (stereo not given) 20.6 µM [inhibitor, partial curve], CCN(CC)C(=O)c1sc2nc(-c3cccs3)cc(-c3ccc(Cl)cc3)c2c1N 18.3 µM [inhibitor, partial curve, poor fit], O=C1N=C(N2C=CC(=C3C=CNC=C3)C=C2)/C(=C/N=NC(=O)c2ccccc2O)S1 32.6 µM [inhibitor, partial curve], COCCCNC(=O)c1cccn2c(=O)c3cc4ccccc4cc3nc12 29.1 µM [inhibitor, single point], O=C1/C(=C\c2ccc(-c3ccccc3Cl)o2)SC(=S)N1CC1CCCO1 (stereo not given) 46.1 µM [inhibitor, single point], O=C(CN1C(=O)c2ccccc2S1(=O)=O)Nc1ncc(Cl)cc1Cl 32.6 µM [inhibitor, partial curve, poor fit], Cn1c(O)c(N=Nc2ccc(F)cc2)c2ccccc21 32.6 µM [inhibitor, single point], Cn1cccc1/C=C1\SC(=S)N(NC(=O)c2ccccc2Cl)C1=O 36.6 µM [inhibitor, single point], O=C(Oc1ccc[nH]c1=O)c1cc([N+](=O)[O-])cc([N+](=O)[O-])c1 18.3 µM [inhibitor, partial curve, poor fit], Nc1ccc2nc(-c3ccccc3)cnc2c1 20.6 µM [inhibitor, partial curve], C=CCn1c(=O)[nH]c2nc3cc(N=CN(C)C)c(C)cc3nc2c1=O 11.6 µM [inhibitor, full curve, poor fit], CCN(CC)c1ccc2cc(S(=O)(=O)c3ccc(C)cc3)c(=O)oc2c1 46.1 µM [inhibitor, single point]

Potency, inactive:
O=C1Nc2ccc(F)cc2C12Nc1ccccc1-c1nnc(SCc3ccccc3F)nc1O2 (stereo not given), Cc1nc2nc(-c3cccs3)cn2nc1C, Cc1ccc(C2C=C(c3ccc(Cl)cc3)Nc3nc(NS(=O)(=O)c4ccccc4)nn32)cc1 (stereo not given), C#CCn1cc(C=C2C(=O)c3ccccc3C2=O)c2ccccc21, Cn1c2ccc(F)cc2c2nc3ccccc3nc21, Cc1ccc(C2C=C(c3ccccc3)Nc3nc(NS(=O)(=O)c4ccccc4)nn32)cc1 (stereo not given), CC1CC(C)CN(C(=O)c2ccc3c(c2NCCO)C(=O)c2ccccc2C3=O)C1 (stereo not given), Cc1ccc(C(=O)Nc2ccc(C(=O)O)cc2)cc1S(=O)(=O)NCc1ccccc1, CN1CCc2c(sc(NC(=O)CSc3ccc(F)cc3)c2-c2nc3ccccc3s2)C1, Cn1c(=O)cc2c3c(c(N4CCCCC4)ccc31)C(=O)c1ccccc1-2, CCOC(=O)c1c(C)oc2c1c(CN1CCN(C(=O)OCC)CC1)c(O)c1ccccc12, COc1ccc(OC)c(S(=O)(=O)Nc2cc3c(cc2C)n(C)c(=O)c(=O)n3C)c1, COc1ccc(-c2onc3ccc(Br)cc23)cc1, COc1ccc(OC)c(/C=C(\C#N)c2nc3ccccc3c(=O)[nH]2)c1, COc1ccc(C(=O)c2sc3nc(C)cc(-c4cccs4)c3c2N)cc1

Potency, active:
COc1ccc(C2C(C(=O)c3cccs3)=C(O)C(=O)N2c2nnc(C)s2)cc1OC (stereo not given) 6.51 µM, Nc1cnccc1C(=O)O 20.6 µM, COCCN(CCOC)Cc1c(O)ccc2c1O/C(=C\c1ccco1)C2=O 13 µM
